The target of data set [1] is T1, Cdx2 (endogenous, intestinal nuclear extract) (Homo sapiens) (UniProt Q99626).
T1 sequence (looked up, limits assumed): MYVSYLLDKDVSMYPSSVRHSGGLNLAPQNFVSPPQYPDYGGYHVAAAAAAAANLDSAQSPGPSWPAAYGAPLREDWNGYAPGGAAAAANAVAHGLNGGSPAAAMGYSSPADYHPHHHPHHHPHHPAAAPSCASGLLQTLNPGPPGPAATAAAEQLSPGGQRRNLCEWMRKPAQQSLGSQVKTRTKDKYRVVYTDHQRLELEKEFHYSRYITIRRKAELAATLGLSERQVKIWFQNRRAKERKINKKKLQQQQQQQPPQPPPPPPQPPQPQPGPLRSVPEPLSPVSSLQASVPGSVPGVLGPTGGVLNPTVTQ
The data set can be described thus: EMSA. The conditions noted are these: protein in an extract, protein details: T84 / Caco2 nuclear extract. A general note: Mobility shift assays separate free from complexed probe on a gel.

Data set [2] concerns the target T1, Cdx2 (endogenous, intestinal nuclear extract) (Homo sapiens). The data set can be described thus: competition with a labelled probe. The following applies: unlabelled SIF1 competed the FP1 complex with greater potency than FP1; SIF1 also formed complexes with T84 and Caco2 extracts; protein in an extract; protein details: T84 / Caco2 nuclear extract; label: 32P 5'-end.

Data set [3] shares this target. Put plainly: binding assay. The following applies: Southwestern blot, ~40 kDa protein in T84 and Caco2 but not HepG2 extracts; protein in an extract; protein details: T84 / Caco2 nuclear extract; label: 32P 5'-end.

Results from cells or extracts need not show a direct contact. For some of these results: Negatives hold for the conditions tested. Where a protein sequence is shown, tags need not be part of it.

As for “CAGCTAATCTCTCTGTTTATAGCTCTGACCTTTC (double strand) [FP1]”, the binding result in data set [1] (intestine-specific complex, supershifted by anti-Cdx2 but not by anti-Cdx1, absent with HepG2 and HeLa extracts, label: 32P 5'-end) was “binds”. In the case of “GATCCGGCTGGTGAGGGTGCAATAAAACTTTATGAGTA (double strand) [SIF1]”, the binding result in data set [2] is reported as “binds”. “ATCTCTCTGTTTATAGCTCTGACCTTTCTGGGTGC (double strand) [FP1B]”: the binding result in data set [3] is listed as “binds”. As to “CAGCTAATCTCTCTGCCCATAGCTCTGACCTTTC (double strand) [FP1-CCC]”, the binding result in data set [1] (no specific complex with T84 extract, unlabelled FP1-CCC did not compete, label: 32P …, variant of FP1) was “no binding”.

The values above are taken from patent US20010039016, “Use of expression profiling for identifying molecular markers useful for diagnosis of metastatic cancer” (published 2001).
